Assay results: doi:10.1101/264788

The chains behind the UniProt entries cited, without tags or fusion partners. Residues count along the entry.
UniProt P02545, residues 1-646: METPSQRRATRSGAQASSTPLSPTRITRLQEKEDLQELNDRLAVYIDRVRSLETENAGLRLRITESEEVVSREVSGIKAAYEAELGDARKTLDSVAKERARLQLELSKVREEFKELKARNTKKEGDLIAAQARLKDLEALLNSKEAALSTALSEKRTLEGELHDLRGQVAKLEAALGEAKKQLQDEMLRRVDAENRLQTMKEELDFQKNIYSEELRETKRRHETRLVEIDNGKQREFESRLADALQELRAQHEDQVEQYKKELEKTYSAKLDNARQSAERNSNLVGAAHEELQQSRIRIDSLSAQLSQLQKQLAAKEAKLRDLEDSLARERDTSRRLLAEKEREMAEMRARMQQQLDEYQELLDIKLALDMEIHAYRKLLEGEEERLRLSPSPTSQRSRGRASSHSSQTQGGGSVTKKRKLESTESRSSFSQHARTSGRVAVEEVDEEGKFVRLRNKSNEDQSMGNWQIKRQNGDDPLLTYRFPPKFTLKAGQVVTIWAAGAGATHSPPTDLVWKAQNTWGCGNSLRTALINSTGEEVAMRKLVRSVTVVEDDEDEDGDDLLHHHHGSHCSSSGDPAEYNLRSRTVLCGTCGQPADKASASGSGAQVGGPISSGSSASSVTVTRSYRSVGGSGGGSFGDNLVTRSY
UniProt P25786: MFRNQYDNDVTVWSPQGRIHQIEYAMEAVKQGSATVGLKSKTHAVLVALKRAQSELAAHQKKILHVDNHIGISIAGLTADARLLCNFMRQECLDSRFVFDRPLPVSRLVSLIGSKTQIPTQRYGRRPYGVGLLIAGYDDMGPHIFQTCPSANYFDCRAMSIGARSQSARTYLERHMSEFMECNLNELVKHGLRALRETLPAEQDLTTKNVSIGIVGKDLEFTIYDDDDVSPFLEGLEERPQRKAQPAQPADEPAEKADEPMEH
UniProt Q9UHV7: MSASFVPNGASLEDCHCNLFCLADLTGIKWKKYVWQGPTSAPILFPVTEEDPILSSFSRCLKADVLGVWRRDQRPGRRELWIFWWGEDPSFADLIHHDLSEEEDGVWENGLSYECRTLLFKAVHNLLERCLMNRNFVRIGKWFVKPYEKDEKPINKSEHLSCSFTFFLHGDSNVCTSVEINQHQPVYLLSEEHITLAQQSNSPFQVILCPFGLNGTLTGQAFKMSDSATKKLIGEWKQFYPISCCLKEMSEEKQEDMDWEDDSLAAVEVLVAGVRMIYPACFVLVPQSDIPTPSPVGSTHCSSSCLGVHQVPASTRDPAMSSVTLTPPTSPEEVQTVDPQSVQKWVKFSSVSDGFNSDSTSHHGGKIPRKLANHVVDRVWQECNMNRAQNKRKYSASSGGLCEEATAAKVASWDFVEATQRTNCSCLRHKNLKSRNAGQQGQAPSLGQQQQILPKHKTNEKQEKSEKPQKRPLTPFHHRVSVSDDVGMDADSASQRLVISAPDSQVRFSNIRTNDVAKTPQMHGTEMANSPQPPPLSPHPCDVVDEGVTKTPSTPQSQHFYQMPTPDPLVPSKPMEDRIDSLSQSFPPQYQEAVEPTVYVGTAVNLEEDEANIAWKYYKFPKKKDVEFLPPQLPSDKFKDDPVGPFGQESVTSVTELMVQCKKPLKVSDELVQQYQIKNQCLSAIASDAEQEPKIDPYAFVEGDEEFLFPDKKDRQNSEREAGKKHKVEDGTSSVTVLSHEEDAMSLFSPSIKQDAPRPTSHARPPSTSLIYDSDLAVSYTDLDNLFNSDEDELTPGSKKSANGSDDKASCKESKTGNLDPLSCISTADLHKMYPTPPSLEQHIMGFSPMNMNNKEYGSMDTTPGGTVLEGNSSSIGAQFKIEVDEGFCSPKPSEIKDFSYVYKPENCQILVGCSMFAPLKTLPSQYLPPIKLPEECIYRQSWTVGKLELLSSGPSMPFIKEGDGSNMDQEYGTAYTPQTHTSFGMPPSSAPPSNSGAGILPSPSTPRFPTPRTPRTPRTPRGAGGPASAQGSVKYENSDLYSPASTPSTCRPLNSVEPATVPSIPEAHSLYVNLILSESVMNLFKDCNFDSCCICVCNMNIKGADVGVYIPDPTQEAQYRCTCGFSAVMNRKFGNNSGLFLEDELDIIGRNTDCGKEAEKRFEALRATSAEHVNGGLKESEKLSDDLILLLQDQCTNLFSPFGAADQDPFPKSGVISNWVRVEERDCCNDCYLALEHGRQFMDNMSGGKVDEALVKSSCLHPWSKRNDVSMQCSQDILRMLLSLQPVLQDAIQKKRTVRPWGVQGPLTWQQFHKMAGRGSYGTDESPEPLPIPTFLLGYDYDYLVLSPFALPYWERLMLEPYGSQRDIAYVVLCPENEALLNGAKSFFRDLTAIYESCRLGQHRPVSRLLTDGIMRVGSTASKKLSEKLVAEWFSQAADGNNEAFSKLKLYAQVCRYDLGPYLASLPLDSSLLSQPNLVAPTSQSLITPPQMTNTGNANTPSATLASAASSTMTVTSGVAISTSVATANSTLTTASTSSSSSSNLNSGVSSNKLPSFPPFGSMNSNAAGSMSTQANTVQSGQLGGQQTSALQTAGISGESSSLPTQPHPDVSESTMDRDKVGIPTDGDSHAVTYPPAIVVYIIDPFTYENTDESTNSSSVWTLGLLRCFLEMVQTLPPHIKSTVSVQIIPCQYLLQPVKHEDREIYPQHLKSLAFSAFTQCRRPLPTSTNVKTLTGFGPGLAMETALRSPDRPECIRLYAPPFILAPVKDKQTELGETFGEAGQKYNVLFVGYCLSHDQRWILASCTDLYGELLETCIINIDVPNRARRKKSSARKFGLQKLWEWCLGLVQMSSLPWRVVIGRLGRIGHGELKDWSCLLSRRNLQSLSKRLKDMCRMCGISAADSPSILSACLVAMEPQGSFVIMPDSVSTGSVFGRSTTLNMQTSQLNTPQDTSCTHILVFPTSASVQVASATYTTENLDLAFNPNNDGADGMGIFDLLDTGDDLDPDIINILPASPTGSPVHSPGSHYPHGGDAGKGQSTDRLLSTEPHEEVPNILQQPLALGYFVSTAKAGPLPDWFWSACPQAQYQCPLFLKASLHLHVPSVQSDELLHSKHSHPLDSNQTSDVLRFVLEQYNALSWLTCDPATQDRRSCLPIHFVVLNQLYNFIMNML
UniProt P49336: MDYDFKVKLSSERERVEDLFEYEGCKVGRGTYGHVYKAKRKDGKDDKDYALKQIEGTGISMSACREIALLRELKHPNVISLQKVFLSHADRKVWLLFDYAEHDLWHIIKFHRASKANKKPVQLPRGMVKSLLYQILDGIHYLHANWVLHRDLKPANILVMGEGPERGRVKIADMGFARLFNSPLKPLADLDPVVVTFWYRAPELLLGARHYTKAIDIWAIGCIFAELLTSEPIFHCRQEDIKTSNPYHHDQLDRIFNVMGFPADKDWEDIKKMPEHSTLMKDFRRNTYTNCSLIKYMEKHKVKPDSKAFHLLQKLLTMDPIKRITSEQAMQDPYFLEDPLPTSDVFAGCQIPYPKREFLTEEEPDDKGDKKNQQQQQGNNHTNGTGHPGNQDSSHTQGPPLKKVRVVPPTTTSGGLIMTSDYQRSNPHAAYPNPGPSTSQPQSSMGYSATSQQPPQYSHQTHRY
UniProt P50613: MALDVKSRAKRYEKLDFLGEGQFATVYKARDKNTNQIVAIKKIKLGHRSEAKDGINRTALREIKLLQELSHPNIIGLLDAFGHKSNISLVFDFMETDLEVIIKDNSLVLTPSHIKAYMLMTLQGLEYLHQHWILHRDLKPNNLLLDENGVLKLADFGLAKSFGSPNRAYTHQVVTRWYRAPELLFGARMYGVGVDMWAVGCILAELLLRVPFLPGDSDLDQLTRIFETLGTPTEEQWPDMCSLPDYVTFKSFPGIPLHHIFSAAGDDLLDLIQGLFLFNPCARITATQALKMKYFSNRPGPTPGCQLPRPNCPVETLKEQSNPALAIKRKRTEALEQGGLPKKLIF
UniProt Q7Z406: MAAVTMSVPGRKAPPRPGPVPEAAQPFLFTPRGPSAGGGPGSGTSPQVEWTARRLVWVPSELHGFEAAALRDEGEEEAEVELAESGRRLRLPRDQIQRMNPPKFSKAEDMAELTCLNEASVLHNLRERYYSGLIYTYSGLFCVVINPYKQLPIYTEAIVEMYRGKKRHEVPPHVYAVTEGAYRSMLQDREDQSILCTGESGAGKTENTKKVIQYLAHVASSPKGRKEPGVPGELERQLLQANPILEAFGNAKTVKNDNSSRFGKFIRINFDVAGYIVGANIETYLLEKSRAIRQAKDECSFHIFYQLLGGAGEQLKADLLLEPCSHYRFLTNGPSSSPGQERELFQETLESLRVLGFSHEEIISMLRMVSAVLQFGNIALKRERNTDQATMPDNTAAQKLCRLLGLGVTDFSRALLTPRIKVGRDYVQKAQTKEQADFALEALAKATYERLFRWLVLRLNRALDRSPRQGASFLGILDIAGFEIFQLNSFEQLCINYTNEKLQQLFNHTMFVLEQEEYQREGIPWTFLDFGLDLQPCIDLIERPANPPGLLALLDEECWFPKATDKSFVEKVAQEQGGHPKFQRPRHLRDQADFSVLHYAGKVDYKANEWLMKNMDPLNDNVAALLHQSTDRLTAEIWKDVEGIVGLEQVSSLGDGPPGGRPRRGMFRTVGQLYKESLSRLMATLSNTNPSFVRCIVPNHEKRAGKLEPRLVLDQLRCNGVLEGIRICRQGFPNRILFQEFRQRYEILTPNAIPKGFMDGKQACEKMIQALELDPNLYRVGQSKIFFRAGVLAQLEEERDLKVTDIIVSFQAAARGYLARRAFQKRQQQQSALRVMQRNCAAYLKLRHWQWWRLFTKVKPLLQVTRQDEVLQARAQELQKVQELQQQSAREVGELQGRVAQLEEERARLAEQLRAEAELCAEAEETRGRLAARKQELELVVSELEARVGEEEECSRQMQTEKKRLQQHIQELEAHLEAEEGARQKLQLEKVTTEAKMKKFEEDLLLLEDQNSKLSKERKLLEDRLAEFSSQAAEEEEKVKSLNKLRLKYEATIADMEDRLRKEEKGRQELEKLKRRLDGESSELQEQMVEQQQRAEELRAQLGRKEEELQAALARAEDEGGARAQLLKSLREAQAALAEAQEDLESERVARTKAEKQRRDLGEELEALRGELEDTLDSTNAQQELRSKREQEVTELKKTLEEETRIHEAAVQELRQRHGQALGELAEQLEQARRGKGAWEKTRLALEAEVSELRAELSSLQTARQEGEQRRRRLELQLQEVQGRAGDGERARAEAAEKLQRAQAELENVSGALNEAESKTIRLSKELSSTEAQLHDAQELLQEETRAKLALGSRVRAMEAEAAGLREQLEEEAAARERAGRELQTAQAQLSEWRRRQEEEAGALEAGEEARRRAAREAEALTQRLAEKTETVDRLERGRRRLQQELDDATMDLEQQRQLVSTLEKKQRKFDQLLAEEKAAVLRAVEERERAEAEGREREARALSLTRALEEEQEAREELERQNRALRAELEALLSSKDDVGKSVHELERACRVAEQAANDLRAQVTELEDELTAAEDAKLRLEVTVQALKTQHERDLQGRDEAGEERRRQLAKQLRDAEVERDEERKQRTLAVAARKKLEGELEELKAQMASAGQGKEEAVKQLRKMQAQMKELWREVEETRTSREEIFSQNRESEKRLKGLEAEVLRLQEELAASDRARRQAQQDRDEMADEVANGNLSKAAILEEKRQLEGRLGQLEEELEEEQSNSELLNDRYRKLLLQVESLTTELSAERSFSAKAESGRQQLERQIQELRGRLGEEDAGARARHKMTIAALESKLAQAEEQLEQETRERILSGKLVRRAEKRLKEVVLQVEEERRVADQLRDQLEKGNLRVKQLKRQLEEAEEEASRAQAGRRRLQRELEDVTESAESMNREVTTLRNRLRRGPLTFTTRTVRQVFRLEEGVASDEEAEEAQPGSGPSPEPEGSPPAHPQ
UniProt Q7Z4V5: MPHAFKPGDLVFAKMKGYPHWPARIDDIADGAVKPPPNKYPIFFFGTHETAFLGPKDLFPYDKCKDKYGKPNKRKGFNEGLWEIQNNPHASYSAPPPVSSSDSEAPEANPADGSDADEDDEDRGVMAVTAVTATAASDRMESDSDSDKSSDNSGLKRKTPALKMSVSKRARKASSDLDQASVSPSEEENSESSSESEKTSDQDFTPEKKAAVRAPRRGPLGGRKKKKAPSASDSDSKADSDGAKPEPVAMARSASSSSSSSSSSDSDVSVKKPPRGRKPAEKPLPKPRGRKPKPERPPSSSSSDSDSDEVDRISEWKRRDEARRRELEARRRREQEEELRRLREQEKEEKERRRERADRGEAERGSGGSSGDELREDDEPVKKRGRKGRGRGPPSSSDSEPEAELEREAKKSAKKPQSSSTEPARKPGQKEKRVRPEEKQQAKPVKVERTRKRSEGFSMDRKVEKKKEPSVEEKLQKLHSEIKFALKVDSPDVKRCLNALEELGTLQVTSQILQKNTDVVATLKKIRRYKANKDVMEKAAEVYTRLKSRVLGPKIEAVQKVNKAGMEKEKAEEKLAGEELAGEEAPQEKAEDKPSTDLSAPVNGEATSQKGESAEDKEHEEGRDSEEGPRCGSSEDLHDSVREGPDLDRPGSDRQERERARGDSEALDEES

Legend:
[1] = molecular target: Prelamin-A/C, MAC-tagged (human) (UniProt P02545); assay: affinity purification with mass spectrometry + proximity labelling
[2] = molecular target: Proteasome subunit alpha type-1, MAC-tagged (human) (UniProt P25786); assay: proximity labelling
[3] = molecular target: mediator of RNA polymerase II transcription subunit 13, MAC-tagged (UniProt Q9UHV7); assay: affinity purification with mass spectrometry + proximity labelling
[4] = molecular target: cyclin-dependent kinase (CDK) 8, MAC-tagged (UniProt P49336); assay: as above
[5] = molecular target: Prelamin-A/C, MAC-tagged (human) (UniProt P02545); assay: as above; remark: listed apart in the source
[6] = molecular target: cyclin-dependent kinase (CDK) 7, MAC-tagged (UniProt P50613); assay: proximity labelling
[7] = molecular target: cyclin-dependent kinase (CDK) 7, MAC-tagged (UniProt P50613); assay: affinity purification with mass spectrometry

Question: For ARF (from UniProt Q8N726 1-132), which binding [1] is on record?
Answer: Its binding is “binds”.

Question: How did the binding [2] turn out when MYH14 (from UniProt Q7Z406 1-1995) was run?
Answer: Its binding is “binds”.

Question: What does the source list for MED15 (from UniProt Q96RN5 1-788)?
Answer: binding [3]: binds; binding [4]: binds

Question: For RAD50 (from UniProt Q92878 1-1312), which binding [1] is on record?
Answer: Its binding is “binds”.

Question: Which binding [1] does the source give for KI67 (from UniProt P46013 1-3256) here?
Answer: The binding was “binds”.

Question: MED1 (from UniProt Q15648 1-1581) was tested. Which binding [3] did it give?
Answer: The binding was “binds”.

Question: What about the binding [4] of the same molecule?
Answer: The binding was “binds”.

Question: MYO6 (from UniProt Q9UM54 1-1294) was tested. Which binding [2] did it give?
Answer: Its binding is “binds”.

Question: With HDGR2 (from UniProt Q7Z4V5 1-671) as the molecule, how does the binding [1] read?
Answer: The binding was “binds”.

Question: With PARP1 (from UniProt P09874) as the molecule, how does the binding [1] read?
Answer: The binding was “binds”.

Question: How did the binding [3] turn out when MED14 (from UniProt O60244 1-1454) was run?
Answer: Its binding is “binds”.

Question: What about the binding [4] of the same molecule?
Answer: Its binding is “binds”.

Question: MYO1B (from UniProt O43795 1-1136) was tested. Which binding [2] did it give?
Answer: The binding was “binds”.

Question: Which binding [2] does the source give for MYH10 (from UniProt P35580 1-1976) here?
Answer: Its binding is “binds”.

B1: EDF1 (protein, UniProt O60869 1-148)
chain: MAESDWDTVTVLRKKGPTAAQAKSKQAILAAQRRGEDVETSKKWAAGQNKQHSITKNTAKLDRETEELHHDRVTLEVGKVIQQGRQSKGLTQKDLATKINEKPQVIADYESGRAIPNNQVLGKIERAIGLKLRGKDIGKPIEKGPRAK
Question: For B1, which binding [5] is on record?
Answer: Its binding is “binds”.

B2: MYSM1 (protein, UniProt Q5VVJ2 1-828)
chain: MAAEEADVDIEGDVVAAAGAQPGSGENTASVLQKDHYLDSSWRTENGLIPWTLDNTISEENRAVIEKMLLEEEYYLSKKSQPEKVWLDQKEDDKKYMKSLQKTAKIMVHSPTKPASYSVKWTIEEKELFEQGLAKFGRRWTKISKLIGSRTVLQVKSYARQYFKNKVKCGLDKETPNQKTGHNLQVKNEDKGTKAWTPSCLRGRADPNLNAVKIEKLSDDEEVDITDEVDELSSQTPQKNSSSDLLLDFPNSKMHETNQGEFITSDSQEALFSKSSRGCLQNEKQDETLSSSEITLWTEKQSNGDKKSIELNDQKFNELIKNCNKHDGRGIIVDARQLPSPEPCEIQKNLNDNEMLFHSCQMVEESHEEEELKPPEQEIEIDRNIIQEEEKQAIPEFFEGRQAKTPERYLKIRNYILDQWEICKPKYLNKTSVRPGLKNCGDVNCIGRIHTYLELIGAINFGCEQAVYNRPQTVDKVRIRDRKDAVEAYQLAQRLQSMRTRRRRVRDPWGNWCDAKDLEGQTFEHLSAEELAKRREEEKGRPVKSLKVPRPTKSSFDPFQLIPCNFFSEEKQEPFQVKVASEALLIMDLHAHVSMAEVIGLLGGRYSEVDKVVEVCAAEPCNSLSTGLQCEMDPVSQTQASETLAVRGFSVIGWYHSHPAFDPNPSLRDIDTQAKYQSYFSRGGAKFIGMIVSPYNRNNPLPYSQITCLVISEEISPDGSYRLPYKFEVQQMLEEPQWGLVFEKTRWIIEKYRLSHSSVPMDKIFRRDSDLTCLQKLLECMRKTLSKVTNCFMAEEFLTEIENLFLSNYKSNQENGVTEENCTKELLM
Question: B2 was tested. Which binding [5] did it give?
Answer: Its binding is “binds”.

B3: AKP8L (protein, UniProt Q9ULX6 1-646)
chain: MSYTGFVQGSETTLQSTYSDTSAQPTCDYGYGTWNSGTNRGYEGYGYGYGYGQDNTTNYGYGMATSHSWEMPSSDTNANTSASGSASADSVLSRINQRLDMVPHLETDMMQGGVYGSGGERYDSYESCDSRAVLSERDLYRSGYDYSELDPEMEMAYEGQYDAYRDQFRMRGNDTFGPRAQGWARDARSGRPMASGYGRMWEDPMGARGQCMSGASRLPSLFSQNIIPEYGMFQGMRGGGAFPGGSRFGFGFGNGMKQMRRTWKTWTTADFRTKKKKRKQGGSPDEPDSKATRTDCSDNSDSDNDEGTEGEATEGLEGTEAVEKGSRVDGEDEEGKEDGREEGKEDPEKGALTTQDENGQTKRKLQAGKKSQDKQKKRQRDRMVERIQFVCSLCKYRTFYEDEMASHLDSKFHKEHFKYVGTKLPKQTADFLQEYVTNKTKKTEELRKTVEDLDGLIQQIYRDQDLTQEIAMEHFVKKVEAAHCAACDLFIPMQFGIIQKHLKTMDHNRNRRLMMEQSKKSSLMVARSILNNKLISKKLERYLKGENPFTDSPEEEKEQEEAEGGALDEGAQGEAAGISEGAEGVPAQPPVPPEPAPGAVSPPPPPPPEEEEEGAVPLLGGALQRQIRGIPGLDVEDDEEGGGGAP
Question: B3 was tested. Which binding [5] did it give?
Answer: The binding was “binds”.

B4: MYO1D (protein, UniProt O94832 1-1006)
chain: MAEQESLEFGKADFVLMDTVSMPEFMANLRLRFEKGRIYTFIGEVVVSVNPYKLLNIYGRDTIEQYKGRELYERPPHLFAIADAAYKAMKRRSKDTCIVISGESGAGKTEASKYIMQYIAAITNPSQRAEVERVKNMLLKSNCVLEAFGNAKTNRNDNSSRFGKYMDINFDFKGDPIGGHINNYLLEKSRVIVQQPGERSFHSFYQLLQGGSEQMLRSLHLQKSLSSYNYIHVGAQLKSSINDAAEFRVVADAMKVIGFKPEEIQTVYKILAAILHLGNLKFVVDGDTPLIENGKVVSIIAELLSTKTDMVEKALLYRTVATGRDIIDKQHTEQEASYGRDAFAKAIYERLFCWIVTRINDIIEVKNYDTTIHGKNTVIGVLDIYGFEIFDNNSFEQFCINYCNEKLQQLFIQLVLKQEQEEYQREGIPWKHIDYFNNQIIVDLVEQQHKGIIAILDDACMNVGKVTDEMFLEALNSKLGKHAHFSSRKLCASDKILEFDRDFRIRHYAGDVVYSVIGFIDKNKDTLFQDFKRLMYNSSNPVLKNMWPEGKLSITEVTKRPLTAATLFKNSMIALVDNLASKEPYYVRCIKPNDKKSPQIFDDERCRHQVEYLGLLENVRVRRAGFAFRQTYEKFLHRYKMISEFTWPNHDLPSDKEAVKKLIERCGFQDDVAYGKTKIFIRTPRTLFTLEELRAQMLIRIVLFLQKVWRGTLARMRYKRTKAALTIIRYYRRYKVKSYIHEVARRFHGVKTMRDYGKHVKWPSPPKVLRRFEEALQTIFNRWRASQLIKSIPASDLPQVRAKVAAVEMLKGQRADLGLQRAWEGNYLASKPDTPQTSGTFVPVANELKRKDKYMNVLFSCHVRKVNRFSKVEDRAIFVTDRHLYKMDPTKQYKVMKTIPLYNLTGLSVSNGKDQLVVFHTKDNKDLIVCLFSKQPTHESRIGELVGVLVNHFKSEKRHLQVNVTNPVQCSLHGKKCTVSVETRLNQPQPDFTKNRSGFILSVPGN
Question: For B4, which binding [2] is on record?
Answer: The binding was “binds”.

B5: TFIIH4 (protein, UniProt Q92759 1-462)
chain: MESTPSRGLNRVHLQCRNLQEFLGGLSPGVLDRLYGHPATCLAVFRELPSLAKNWVMRMLFLEQPLPQAAVALWVKKEFSKAQEESTGLLSGLRIWHTQLLPGGLQGLILNPIFRQNLRIALLGGGKAWSDDTSQLGPDKHARDVPSLDKYAEERWEVVLHFMVGSPSAAVSQDLAQLLSQAGLMKSTEPGEPPCITSAGFQFLLLDTPAQLWYFMLQYLQTAQSRGMDLVEILSFLFQLSFSTLGKDYSVEGMSDSLLNFLQHLREFGLVFQRKRKSRRYYPTRLAINLSSGVSGAGGTVHQPGFIVVETNYRLYAYTESELQIALIALFSEMLYRFPNMVVAQVTRESVQQAIASGITAQQIIHFLRTRAHPVMLKQTPVLPPTITDQIRLWELERDRLRFTEGVLYNQFLSQVDFELLLAHARELGVLVFENSAKRLMVVTPAGHSDVKRFWKRQKHSS
Question: For B5, which binding [6] is on record?
Answer: The binding was “binds”.

Question: And the binding [7]?
Answer: Its binding is “binds”.

B6: TFIIH5 (protein, UniProt Q6ZYL4 1-71)
chain: MVNVLKGVLIECDPAMKQFLLYLDESNALGKKFIIQDIDDTHVFVIAELVNVLQERVGELMDQNAFSLTQK
Question: B6 was tested. Which binding [6] did it give?
Answer: The binding was “binds”.

Question: And the binding [7]?
Answer: Its binding is “binds”.

Read-outs that look alike come from different tables or passages of the source. These are yes or no findings as the source states them, for the method shown. Binding seen in cells or lysates may run through a third protein. Here binding means that the protein was enriched with, or labelled near, the bait; the list need not be complete.
